Reference: the supplement of paper PMC10849652
Some of the results follow.

Protein sequences, listed by entry. Tags and fused reporters are not part of them. Lines headed by an entry give the natural chain unless they say otherwise; changes in a name come on top.
UniProt Q9NS86: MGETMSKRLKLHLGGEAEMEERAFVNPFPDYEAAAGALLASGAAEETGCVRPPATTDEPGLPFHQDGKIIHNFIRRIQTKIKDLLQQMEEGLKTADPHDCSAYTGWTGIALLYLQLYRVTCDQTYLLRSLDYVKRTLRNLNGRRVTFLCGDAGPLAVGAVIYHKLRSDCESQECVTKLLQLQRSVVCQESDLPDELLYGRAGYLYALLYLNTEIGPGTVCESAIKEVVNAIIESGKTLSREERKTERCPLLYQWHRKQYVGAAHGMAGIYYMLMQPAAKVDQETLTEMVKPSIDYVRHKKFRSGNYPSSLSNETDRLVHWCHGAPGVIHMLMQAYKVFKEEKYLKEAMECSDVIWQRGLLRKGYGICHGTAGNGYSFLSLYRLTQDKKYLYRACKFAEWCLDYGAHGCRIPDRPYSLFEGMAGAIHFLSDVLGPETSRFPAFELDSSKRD
UniProt Q9H0B6: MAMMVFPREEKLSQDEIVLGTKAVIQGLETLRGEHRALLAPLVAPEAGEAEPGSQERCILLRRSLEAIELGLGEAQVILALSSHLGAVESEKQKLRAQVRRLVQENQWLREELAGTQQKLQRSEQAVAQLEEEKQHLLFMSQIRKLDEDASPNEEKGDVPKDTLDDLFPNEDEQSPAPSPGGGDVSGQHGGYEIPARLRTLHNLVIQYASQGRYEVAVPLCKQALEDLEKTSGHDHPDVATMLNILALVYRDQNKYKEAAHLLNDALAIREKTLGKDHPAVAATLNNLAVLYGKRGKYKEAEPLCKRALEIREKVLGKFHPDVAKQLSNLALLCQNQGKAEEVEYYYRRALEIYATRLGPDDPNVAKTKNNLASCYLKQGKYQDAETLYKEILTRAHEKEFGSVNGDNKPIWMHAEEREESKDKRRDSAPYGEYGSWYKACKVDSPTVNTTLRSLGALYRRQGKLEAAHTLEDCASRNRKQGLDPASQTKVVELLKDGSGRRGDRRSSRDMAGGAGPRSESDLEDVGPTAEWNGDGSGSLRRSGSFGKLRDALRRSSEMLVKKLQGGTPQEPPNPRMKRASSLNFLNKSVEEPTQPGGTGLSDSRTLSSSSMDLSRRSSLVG
UniProt P07942: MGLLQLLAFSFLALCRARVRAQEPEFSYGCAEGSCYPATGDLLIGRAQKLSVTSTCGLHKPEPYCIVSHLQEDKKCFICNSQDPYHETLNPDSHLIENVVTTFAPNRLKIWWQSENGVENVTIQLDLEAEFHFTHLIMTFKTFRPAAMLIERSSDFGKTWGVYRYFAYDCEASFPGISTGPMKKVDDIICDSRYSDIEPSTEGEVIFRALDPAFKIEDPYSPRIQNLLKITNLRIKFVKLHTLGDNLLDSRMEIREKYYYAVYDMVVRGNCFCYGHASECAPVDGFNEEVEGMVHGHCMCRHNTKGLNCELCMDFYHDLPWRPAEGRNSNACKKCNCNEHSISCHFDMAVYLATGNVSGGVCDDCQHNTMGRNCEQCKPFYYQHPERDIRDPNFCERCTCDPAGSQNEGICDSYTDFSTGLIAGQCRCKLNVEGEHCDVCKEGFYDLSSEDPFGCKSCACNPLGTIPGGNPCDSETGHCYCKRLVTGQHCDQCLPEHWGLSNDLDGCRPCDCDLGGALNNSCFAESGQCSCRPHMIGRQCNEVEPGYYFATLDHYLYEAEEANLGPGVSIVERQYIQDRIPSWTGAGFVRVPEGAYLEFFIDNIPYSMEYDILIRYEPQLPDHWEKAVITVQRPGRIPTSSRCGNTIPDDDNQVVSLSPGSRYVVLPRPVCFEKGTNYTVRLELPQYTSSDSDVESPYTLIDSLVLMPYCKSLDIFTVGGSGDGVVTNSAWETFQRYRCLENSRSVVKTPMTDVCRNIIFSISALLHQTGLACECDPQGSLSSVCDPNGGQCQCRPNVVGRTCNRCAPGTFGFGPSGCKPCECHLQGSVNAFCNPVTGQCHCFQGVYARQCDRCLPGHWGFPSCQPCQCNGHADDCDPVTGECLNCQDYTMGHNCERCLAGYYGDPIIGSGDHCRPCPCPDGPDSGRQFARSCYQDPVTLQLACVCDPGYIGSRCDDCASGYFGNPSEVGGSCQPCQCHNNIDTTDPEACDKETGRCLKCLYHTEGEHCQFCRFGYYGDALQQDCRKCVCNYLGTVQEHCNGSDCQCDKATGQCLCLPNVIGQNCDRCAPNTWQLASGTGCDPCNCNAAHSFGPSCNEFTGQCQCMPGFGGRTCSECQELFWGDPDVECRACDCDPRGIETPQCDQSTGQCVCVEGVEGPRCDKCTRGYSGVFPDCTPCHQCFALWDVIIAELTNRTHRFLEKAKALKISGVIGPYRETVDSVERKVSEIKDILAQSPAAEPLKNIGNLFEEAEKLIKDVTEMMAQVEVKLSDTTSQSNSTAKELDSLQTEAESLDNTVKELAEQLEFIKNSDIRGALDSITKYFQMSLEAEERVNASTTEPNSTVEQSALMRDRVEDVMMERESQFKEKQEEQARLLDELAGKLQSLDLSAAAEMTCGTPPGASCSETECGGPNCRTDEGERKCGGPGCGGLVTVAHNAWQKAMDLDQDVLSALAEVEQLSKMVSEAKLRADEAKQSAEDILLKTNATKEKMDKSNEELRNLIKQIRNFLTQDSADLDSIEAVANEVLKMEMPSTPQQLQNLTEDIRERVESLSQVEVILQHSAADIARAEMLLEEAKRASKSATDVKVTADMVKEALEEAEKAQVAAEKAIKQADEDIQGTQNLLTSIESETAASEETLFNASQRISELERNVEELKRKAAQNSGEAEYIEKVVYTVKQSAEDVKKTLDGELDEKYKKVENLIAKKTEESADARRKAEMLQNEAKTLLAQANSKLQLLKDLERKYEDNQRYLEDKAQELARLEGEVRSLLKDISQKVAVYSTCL
UniProt Q9Y448: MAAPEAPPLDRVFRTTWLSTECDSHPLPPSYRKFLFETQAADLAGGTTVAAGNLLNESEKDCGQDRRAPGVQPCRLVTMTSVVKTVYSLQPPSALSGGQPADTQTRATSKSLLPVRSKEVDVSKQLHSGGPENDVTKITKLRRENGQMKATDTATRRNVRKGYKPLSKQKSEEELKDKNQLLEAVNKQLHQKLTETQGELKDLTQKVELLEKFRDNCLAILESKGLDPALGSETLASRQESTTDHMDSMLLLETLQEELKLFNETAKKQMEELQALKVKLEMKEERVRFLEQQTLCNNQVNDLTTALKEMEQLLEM
UniProt Q96A73: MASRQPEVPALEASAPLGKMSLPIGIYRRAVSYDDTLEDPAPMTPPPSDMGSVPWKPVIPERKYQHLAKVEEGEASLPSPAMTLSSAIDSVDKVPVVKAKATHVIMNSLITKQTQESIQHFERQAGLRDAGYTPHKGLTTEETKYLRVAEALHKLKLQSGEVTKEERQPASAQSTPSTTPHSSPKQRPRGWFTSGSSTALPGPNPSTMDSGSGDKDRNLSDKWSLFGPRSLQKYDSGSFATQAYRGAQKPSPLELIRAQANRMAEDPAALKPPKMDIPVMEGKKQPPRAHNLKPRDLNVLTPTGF
UniProt Q9Y664: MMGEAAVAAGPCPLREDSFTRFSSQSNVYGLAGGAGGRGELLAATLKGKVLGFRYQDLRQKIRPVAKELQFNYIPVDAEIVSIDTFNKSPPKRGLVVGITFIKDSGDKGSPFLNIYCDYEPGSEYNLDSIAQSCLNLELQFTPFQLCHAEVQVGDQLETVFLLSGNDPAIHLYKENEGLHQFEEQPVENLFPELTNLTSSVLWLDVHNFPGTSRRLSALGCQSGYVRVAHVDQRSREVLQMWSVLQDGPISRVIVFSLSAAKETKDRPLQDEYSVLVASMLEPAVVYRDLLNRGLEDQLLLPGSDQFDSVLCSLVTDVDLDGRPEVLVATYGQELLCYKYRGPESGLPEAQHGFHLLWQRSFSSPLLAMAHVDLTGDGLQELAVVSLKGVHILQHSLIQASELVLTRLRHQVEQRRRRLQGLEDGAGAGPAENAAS
UniProt Q7Z4S6: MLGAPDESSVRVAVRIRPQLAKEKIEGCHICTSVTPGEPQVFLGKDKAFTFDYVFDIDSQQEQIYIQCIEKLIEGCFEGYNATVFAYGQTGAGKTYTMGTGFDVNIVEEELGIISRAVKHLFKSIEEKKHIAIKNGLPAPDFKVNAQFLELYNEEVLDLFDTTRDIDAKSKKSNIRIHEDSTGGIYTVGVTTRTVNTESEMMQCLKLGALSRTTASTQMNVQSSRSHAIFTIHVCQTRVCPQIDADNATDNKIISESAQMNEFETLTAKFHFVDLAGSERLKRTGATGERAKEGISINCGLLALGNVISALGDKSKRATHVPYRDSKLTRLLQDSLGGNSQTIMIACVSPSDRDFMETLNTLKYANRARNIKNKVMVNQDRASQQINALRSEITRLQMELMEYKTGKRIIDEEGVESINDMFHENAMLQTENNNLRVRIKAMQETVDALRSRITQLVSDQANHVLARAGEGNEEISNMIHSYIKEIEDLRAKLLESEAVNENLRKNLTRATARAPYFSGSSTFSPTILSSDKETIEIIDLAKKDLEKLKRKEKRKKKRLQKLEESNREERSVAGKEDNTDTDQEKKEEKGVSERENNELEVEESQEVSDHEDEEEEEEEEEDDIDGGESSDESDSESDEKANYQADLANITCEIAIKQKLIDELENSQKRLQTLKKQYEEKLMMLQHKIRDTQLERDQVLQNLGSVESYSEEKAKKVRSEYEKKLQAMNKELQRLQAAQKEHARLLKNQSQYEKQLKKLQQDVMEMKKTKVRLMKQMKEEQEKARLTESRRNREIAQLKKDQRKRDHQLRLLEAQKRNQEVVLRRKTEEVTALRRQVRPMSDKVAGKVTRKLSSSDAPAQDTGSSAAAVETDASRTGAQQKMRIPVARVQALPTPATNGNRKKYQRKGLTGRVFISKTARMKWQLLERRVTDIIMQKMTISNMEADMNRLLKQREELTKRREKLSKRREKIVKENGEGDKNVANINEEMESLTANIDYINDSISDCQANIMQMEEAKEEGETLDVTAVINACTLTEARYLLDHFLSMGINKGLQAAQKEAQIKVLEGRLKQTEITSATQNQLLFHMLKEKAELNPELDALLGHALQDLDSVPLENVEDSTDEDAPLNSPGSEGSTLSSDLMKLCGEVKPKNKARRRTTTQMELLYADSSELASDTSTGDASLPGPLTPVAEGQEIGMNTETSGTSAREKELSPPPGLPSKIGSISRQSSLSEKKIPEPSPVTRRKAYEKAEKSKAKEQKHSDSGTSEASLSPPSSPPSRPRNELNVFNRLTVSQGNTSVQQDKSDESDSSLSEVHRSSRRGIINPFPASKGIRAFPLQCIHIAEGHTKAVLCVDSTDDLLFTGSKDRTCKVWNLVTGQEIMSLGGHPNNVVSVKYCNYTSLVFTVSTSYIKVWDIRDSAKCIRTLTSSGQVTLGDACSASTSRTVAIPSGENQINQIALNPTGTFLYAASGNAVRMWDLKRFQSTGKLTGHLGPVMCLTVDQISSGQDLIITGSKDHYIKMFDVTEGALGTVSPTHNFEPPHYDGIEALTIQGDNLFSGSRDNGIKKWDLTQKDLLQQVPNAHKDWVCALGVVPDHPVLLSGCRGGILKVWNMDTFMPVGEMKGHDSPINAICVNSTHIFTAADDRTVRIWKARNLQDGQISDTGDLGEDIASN
UniProt Q1ED39: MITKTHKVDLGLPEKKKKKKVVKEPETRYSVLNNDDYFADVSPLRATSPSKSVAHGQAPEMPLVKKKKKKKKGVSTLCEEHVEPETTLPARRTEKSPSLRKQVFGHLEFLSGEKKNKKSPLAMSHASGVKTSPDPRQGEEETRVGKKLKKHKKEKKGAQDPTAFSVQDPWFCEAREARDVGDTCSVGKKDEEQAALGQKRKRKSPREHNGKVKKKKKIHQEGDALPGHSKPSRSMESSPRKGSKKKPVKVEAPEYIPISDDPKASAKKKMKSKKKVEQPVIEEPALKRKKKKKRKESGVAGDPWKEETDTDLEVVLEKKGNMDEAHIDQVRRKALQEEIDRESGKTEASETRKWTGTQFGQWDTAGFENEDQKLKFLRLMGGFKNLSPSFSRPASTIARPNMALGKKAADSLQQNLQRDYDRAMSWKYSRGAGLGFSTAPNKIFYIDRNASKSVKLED
UniProt Q13601: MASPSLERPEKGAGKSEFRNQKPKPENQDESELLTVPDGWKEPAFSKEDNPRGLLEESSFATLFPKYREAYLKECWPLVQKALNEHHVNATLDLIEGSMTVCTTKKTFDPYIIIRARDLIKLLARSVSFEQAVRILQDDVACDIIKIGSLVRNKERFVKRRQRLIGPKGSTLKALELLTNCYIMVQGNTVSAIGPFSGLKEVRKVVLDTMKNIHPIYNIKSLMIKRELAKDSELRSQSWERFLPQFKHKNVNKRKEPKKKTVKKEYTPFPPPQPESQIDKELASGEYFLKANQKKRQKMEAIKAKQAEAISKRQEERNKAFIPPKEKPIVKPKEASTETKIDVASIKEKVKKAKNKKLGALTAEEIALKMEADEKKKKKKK
UniProt Q96AT1: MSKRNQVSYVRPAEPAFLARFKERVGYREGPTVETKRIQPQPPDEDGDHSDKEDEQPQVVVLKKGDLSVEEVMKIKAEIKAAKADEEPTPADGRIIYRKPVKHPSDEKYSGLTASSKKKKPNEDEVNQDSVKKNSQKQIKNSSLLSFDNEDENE

These targets were tested with NCC(=O)Nc1ccc(-n2nc(C(F)(F)F)cc2-c2ccc3c(ccc4ccccc43)c2)cc1 (assay: log2 fold change, soluble protein after heating vs DMSO (PISA); higher = thermal stabilisation; K562 lysate, 10 uM; active = over 0.2 and 3.5 SD of the protein, either way, in both replicates (recomputed)).
In short: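 Pellets of K562 cells were dounce-homogenised in PBS pH 7.4 with 1 mM MgCl2, and the crude extract was held at 1 mg/mL protein for a 30 min treatment with 10 μM compound. Aliquots were heated for 3 min over 48°C-58°C and pooled before NP-40 was added to 0.5% at 4°C. The supernatant from 21,000xg for 90 min was quantified by TMTpro 16plex LC-MS/MS with channel sums equalised. Values are reported from duplicates as log-two fold change in thermal stability relative to solvent controls.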
With LARP4B (UniProt Q92615) the log2 fold change was inactive: 0.019. With KIAA1522 isoform 2 (UniProt Q9P206) the log2 fold change was inactive: -0.048. KIF16B isoform 2 (UniProt Q96L93) was tested, and the log2 fold change was inactive: 0.071. KTN1 (UniProt Q86UP2) was tested, and the log2 fold change was inactive: 0.004. With KIF15 (UniProt Q9NS87) the log2 fold change was inactive: 0.017. In the case of LANCL2 (UniProt Q9NS86), the log2 fold change is reported as inactive: 0.001. In the case of KLHL7 (UniProt Q8IXQ5), the log2 fold change is reported as inactive: -0.185. In the case of KLC2 (UniProt Q9H0B6), the log2 fold change is reported as inactive: 0.01. In the case of KDM8 isoform 3 (UniProt Q8N371), the log2 fold change is reported as inactive: -0.003. With LARP1B, A0A3B3ISF0 the log2 fold change was inactive: 0.084. In the case of LAMB1 (UniProt P07942), the log2 fold change is reported as inactive: -0.007. In the case of KIF23 isoform 2 (UniProt Q02241), the log2 fold change is reported as inactive: -0.002. For LAMTOR5 (UniProt O43504), the log2 fold change was inactive: -0.092. With KDM4B (UniProt O94953) the log2 fold change was inactive: 0.181. With KNSTRN (UniProt Q9Y448) the log2 fold change was inactive: -0.018. In the case of KEL (UniProt P23276), the log2 fold change is reported as inactive: -0.046. KIF5B (UniProt P33176) was tested, and the log2 fold change was inactive: -0.003. For KIAA1191 (UniProt Q96A73), the log2 fold change was inactive: 0.097. In the case of KMT2E (UniProt Q8IZD2), the log2 fold change is reported as inactive: 0.097. In the case of LARP4 isoform 4 (UniProt Q71RC2), the log2 fold change is reported as inactive: 0.013. KLHDC4 (UniProt Q8TBB5) was tested, and the log2 fold change was inactive: -0.022. KRAS (UniProt P01116) was tested, and the log2 fold change was inactive: 0.033. L2HGDH (UniProt Q9H9P8) was tested, and the log2 fold change was inactive: 0.012. With KIF1C (UniProt O43896) the log2 fold change was inactive: -0.201. For LAMP1 (UniProt P11279), the log2 fold change was inactive: 0.007. In the case of KDM5B isoform 2 (UniProt Q9UGL1), the log2 fold change is reported as inactive: 0.11. In the case of KIF13A isoform 4 (UniProt Q9H1H9), the log2 fold change is reported as inactive: 0. KHK isoform 2 (UniProt P50053) was tested, and the log2 fold change was inactive: 0.035. For KPTN (UniProt Q9Y664), the log2 fold change was inactive: 0. For KPNA2 (UniProt P52292), the log2 fold change was inactive: -0.014. For KLC4 isoform 3 (UniProt Q9NSK0), the log2 fold change was inactive: 0.01. With KIF21A isoform 5 (UniProt Q7Z4S6) the log2 fold change was inactive: 0.005. KNOP1 (UniProt Q1ED39) was tested, and the log2 fold change was inactive: 0.019. KIF11 (UniProt P52732) was tested, and the log2 fold change was inactive: -0.013. KIDINS220 isoform 4 (UniProt Q9ULH0) was tested, and the log2 fold change was inactive: -0.012. KRR1 (UniProt Q13601) was tested, and the log2 fold change was inactive: 0.013. For KRIT1 (UniProt O00522), the log2 fold change was inactive: -0.125. KRTCAP2 isoform 2 (UniProt Q8N6L1) was tested, and the log2 fold change was inactive: 0. For KIAA1143 (UniProt Q96AT1), the log2 fold change was inactive: -0.035.
